{
  "source": "paper PMC9144521",
  "about": "(Viruses, 2022)",
  "key": {"[1]": {"tested_on": "AdV3", "assay": "Anti-AdV activity assay (IFA of hexon), secondary screen, AdV3", "assay_type": "cell-based, Human adenoviruses type 3"}, "[2]": {"tested_on": "AdV5", "assay": "Anti-AdV activity assay (IFA of hexon), secondary screen, AdV5", "assay_type": "cell-based, Human adenoviruses type 5"}, "[3]": {"tested_on": "Vero cells", "conditions": "48 h, CellTiter-Glo, concentrations tested up to 5 µM"}, "[4]": {"conditions": "Vero cells, 48 h, IFA of hexon, 0.02 to 5 μM"}},
  "data": [
    {"smiles": "CC(C)n1nc(-c2cc3cc(O)ccc3[nH]2)c2c(N)ncnc21", "note": "[PP242]", "values": [
      {"measurement": "Selective Index AdV3", "setting": "[1]; CC50/EC50, Vero cells", "value": ">4.85"},
      {"measurement": "EC50", "setting": "[1]; [4]", "value": 1030, "unit": "nM"},
      {"measurement": "Selective Index AdV5", "setting": "[2]; CC50/EC50, Vero cells", "value": ">2.54"},
      {"measurement": "EC50", "setting": "[2]; [4]", "value": 1970, "unit": "nM"},
      {"measurement": "CC50", "setting": "[3]", "value": "> 5", "unit": "µM"}
    ]}
  ]
}
